Some results were stated once for a whole list of compounds, not compound by compound.
Tested on: okra and cucumber seeds
Test: okra and cucumber seed germination in germination chambers after seed incubation
Type: in vivo, Abelmoschus esculentus (Okra), Cucumis sativus (Cucumber)
Conditions: seeds soaked in 1 uM, kept at 4° C. for 24 hours before germination chamber; 0 seeds germinated in either control group

Row | Structure (SMILES) | seeds germinated by day 8
1 | O=c1oc2c(O)c(O)cc3c(=O)oc4c(O)c(O)cc1c4c23 [EA, Ellagic acid] | over 50%
2 | NC(=O)c1ccc[n+]([C@@H]2O[C@H](CO)[C@@H](O)[C@H]2O)c1 [NR, Nicotinamide riboside] | over 50%
